Binding data for 1 substance are collected here from PMC4534584.

Amino acid sequences for entries named in this document (tags omitted). Residues count along the entry.
UniProt P37173, residues 23-567: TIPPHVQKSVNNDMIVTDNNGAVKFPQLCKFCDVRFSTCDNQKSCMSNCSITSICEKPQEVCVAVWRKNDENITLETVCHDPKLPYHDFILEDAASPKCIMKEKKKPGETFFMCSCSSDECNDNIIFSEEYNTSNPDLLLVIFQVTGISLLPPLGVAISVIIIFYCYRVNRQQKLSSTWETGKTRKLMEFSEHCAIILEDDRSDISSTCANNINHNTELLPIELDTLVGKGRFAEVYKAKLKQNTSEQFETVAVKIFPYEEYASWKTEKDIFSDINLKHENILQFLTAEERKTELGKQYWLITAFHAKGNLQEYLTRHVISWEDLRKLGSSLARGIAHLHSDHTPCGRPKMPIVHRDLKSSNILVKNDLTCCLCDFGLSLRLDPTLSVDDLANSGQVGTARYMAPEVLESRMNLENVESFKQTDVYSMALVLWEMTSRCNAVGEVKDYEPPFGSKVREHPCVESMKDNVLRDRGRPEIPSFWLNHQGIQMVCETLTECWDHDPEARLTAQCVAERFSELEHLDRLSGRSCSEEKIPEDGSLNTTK
UniProt P05106, residues 27-788: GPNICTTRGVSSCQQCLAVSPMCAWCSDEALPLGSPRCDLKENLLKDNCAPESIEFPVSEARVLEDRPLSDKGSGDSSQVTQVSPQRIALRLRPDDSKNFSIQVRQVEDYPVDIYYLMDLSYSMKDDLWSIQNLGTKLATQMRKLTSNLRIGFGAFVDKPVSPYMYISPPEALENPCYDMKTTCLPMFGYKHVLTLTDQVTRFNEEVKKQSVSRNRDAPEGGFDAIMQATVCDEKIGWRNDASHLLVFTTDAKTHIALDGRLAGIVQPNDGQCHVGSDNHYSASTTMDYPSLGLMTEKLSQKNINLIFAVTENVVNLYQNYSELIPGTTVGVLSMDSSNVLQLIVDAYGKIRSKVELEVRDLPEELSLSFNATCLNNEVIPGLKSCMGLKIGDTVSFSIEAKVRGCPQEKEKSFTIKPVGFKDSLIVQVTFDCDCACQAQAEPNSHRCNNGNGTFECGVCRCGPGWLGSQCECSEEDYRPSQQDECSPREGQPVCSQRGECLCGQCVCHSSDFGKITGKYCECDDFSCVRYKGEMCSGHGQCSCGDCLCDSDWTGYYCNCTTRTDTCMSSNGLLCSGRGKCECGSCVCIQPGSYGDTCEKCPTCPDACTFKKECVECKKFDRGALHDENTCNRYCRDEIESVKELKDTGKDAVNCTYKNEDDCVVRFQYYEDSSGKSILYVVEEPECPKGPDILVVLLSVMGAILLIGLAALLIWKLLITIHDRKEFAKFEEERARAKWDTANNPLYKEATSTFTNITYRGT

The target of this assay is TGF-β Receptor Type II (human (endogenous in MDA-MB-231)) (UniProt P37173). Put plainly: FRET or BRET; FRET signal in MDA-MB-231 cells on rigid and compliant substrates, Fn concentrations ranging from 0-50 μg/ml.

These are yes or no findings as the source states them, for the method shown. In cells and extracts the contact can be indirect. Some entries that bind do so weakly or less than the wild type.

Turning to “Integrin β3 (from UniProt P05106 27-788) (receptor)”, the binding entry is on record as “binds”.
